This note sets out measurements from publication PMC7819943, “Rice protein-binding microarrays: a tool to detect cis-acting elements near promoter regions in rice”.

By UniProt entry, the sequences of proteins in these tests, tags left out.
UniProt Q0JBA9, entry or part of it: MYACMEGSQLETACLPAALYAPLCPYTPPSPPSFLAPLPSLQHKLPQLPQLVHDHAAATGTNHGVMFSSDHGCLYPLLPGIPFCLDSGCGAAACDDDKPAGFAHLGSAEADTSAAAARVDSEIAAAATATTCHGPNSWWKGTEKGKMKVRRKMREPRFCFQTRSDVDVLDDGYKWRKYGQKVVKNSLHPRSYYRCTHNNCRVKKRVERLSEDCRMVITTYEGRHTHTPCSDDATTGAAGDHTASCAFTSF

Some of the results follow.

In this assay the target is OsWRKY34 (Oryza sativa, UniProt Q0JBA9 1-250). The assay is described as follows: protein-binding microarray (RPBM); PBS, 2% BSA, 51.3 ng/ul salmon testes DNA, 50 uM zinc acetate, 200 nM TF, 25 C, 1 h; high values mean tight binding. The settings on record: protein: recombinant; tags: N-terminal polyhistidine and DsRed monomer fusion (pET32a); label: CyDye5-dUTP incorporated in the synthesized complementary strand; 3' TTTTT single-stranded linker to array surface; dsDNA, one strand shown. In short, it runs like this:
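Transcription factors were each fused at the N-terminus to a polyhistidine tag plus DsRed and expressed in E. coli BL21-CodonPlus before Ni–NTA purification. Binding to a double-stranded custom Agilent array was carried out with 200 nM protein at 25 °C for 1 h in PBS, 2% BSA, salmon testes DNA and 50 µM zinc acetate. The binding signal is per-feature fluorescence intensity, in arbitrary units, on an Axon 4000B scanner.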
Take “TGTGTTATGCTTGTATGTTGAGCTTTATAGTTCCTACTAACGGAGTCACCTAGTGCAG”: the binding signal is 8320 fluorescence intensity (a.u.).

For “AACTAGCTGCCCTTCCCTTGCATCCTATTCCTTCCCTGCACGGAGTCACCTAGTGCAG”, the binding signal is 8250 fluorescence intensity (a.u.).

In the case of “AACACTTATTTCACACGTGGATTGTGCGTTTATGCTTTGACGGAGTCACCTAGTGCAG”, the binding signal is 12300 fluorescence intensity (a.u.).

Take “AATTGAATTCATGATTTCCTTGGTTGGTCTGTCACATTATCGGAGTCACCTAGTGCAG”: the binding signal is 8200 fluorescence intensity (a.u.).

Consider “TACATGTCTTAGAGCTACACATCTCTGATTTTTTTTTACACGGAGTCACCTAGTGCAG”, for which the binding signal was 8950 fluorescence intensity (a.u.).

With “GTTGCAATGCTGGTTAGTTTGACTTCTCACTTTAAGAATTCGGAGTCACCTAGTGCAG”, the binding signal is 9010 fluorescence intensity (a.u.).

Consider “AGGATTATCTCGTTACATGTTCTTTCGTTCTCGTGTTGCACGGAGTCACCTAGTGCAG”, for which the binding signal is 9770 fluorescence intensity (a.u.).

Regarding “TGGCTTCGTACGTGTACCCGTCTGCTGCGATGTGAGGATCCGGAGTCACCTAGTGCAG”, the binding signal is 10000 fluorescence intensity (a.u.).

“CTGAATCCCGCCCGGTGTTTGAGTGCCTTCGCCTATGCTGCGGAGTCACCTAGTGCAG”: the binding signal was 8250 fluorescence intensity (a.u.).

In the case of “CTACTATTTGCATATCTTATCCGTTGCAGGGTCAAACTGACGGAGTCACCTAGTGCAG”, the binding signal was 8280 fluorescence intensity (a.u.).

Turning to “ACCTCTTCTCCCCGCGCTGGCTCGACATCTGGCGCGCCGACGGAGTCACCTAGTGCAG”, the binding signal was 8130 fluorescence intensity (a.u.).

“ATTAATGGGCTCTTTTGTTTCTATGGAATTTTGCGAAAAACGGAGTCACCTAGTGCAG”: the binding signal was 8480 fluorescence intensity (a.u.).

Turning to “ACCCCAAGTCCCCATCCACTCCACCACCCCGGCCATTCCACGGAGTCACCTAGTGCAG”, the binding signal was 9290 fluorescence intensity (a.u.).

Consider “TTCCTTTGAGTATATCTCTCTCATCCTGTTCGTGCGTTTTCGGAGTCACCTAGTGCAG”, for which the binding signal was 8480 fluorescence intensity (a.u.).

Regarding “GGATCAGGTGGAGGAATAGCGATGGGAGGGGTGGTGGTTGCGGAGTCACCTAGTGCAG”, the binding signal was 13800 fluorescence intensity (a.u.).

In the case of “CTGTTTTAGGCATTACTCAAATTTTATAGGAATTAAATAACGGAGTCACCTAGTGCAG”, the binding signal is 8050 fluorescence intensity (a.u.).

Take “AGGGCGTATTGTGGTGCACACTTGTCGTTTGACCTTTTAACGGAGTCACCTAGTGCAG”: the binding signal was 12700 fluorescence intensity (a.u.).

As to “AATTCTATCCTCCACCTTTTGCTGCCGCTCTCGCCATACCCGGAGTCACCTAGTGCAG”, the binding signal is 11100 fluorescence intensity (a.u.).

As for “GTTTGTTTCGGCCTGTTTACCTTTCTCCTTATCCTTGGATCGGAGTCACCTAGTGCAG”, the binding signal is 11700 fluorescence intensity (a.u.).

Regarding “GGGAGACGGTGGCGGCGGGGACTGGGGCTCGAGGGAGATGCGGAGTCACCTAGTGCAG”, the binding signal is 8070 fluorescence intensity (a.u.).

In the case of “GATGAGGGTGGGGCAAAGGGTCTCTTGTCATATAACCTCGCGGAGTCACCTAGTGCAG”, the binding signal was 15400 fluorescence intensity (a.u.).

For the sequence “CCGATATTCGAAACACGCTCCGCATCCGCACCCGTTTTTTCGGAGTCACCTAGTGCAG”, the binding signal was 8710 fluorescence intensity (a.u.).

Take “ACTGCGGCTTCTCTCTTGCTTCTTTTGGCCGTTTGCAAAGCGGAGTCACCTAGTGCAG”: the binding signal is 12800 fluorescence intensity (a.u.).

For “TTCAATTGGACGCGTCGCGGTCGCGATCCGCCGATCGATCCGGAGTCACCTAGTGCAG”, the binding signal was 8380 fluorescence intensity (a.u.).

Turning to “ATATAACCCGCTGCTCTTCTCTCTCATCTTTTATCTTATTCGGAGTCACCTAGTGCAG”, the binding signal is 9410 fluorescence intensity (a.u.).

With “GAGCCTCTATTTCTACTTCTCCACCTTTTACGGTTGAGAGCGGAGTCACCTAGTGCAG”, the binding signal is 9200 fluorescence intensity (a.u.).

On to “CATTTCTCATTTAATTCTTTTACCTACTTTCTCATCTTAACGGAGTCACCTAGTGCAG”, for which the binding signal was 9200 fluorescence intensity (a.u.).

Turning to “ACATACCATCGTTATTTGCATGTCAACCAAACCAAATGGTCGGAGTCACCTAGTGCAG”, the binding signal was 8990 fluorescence intensity (a.u.).

For the sequence “CGGTGGGAGTGGGATAAAGGGACGTGGGGCGAGGTAGACCCGGAGTCACCTAGTGCAG”, the binding signal is 13400 fluorescence intensity (a.u.).

“ATTTCTACTGTAGCTACCATCTTTTTCAGTACTTCTAGTTCGGAGTCACCTAGTGCAG”: the binding signal was 11000 fluorescence intensity (a.u.).

As to “CTATCCATATTCCTGTGAGTTAATATCTTCTCATATAAAACGGAGTCACCTAGTGCAG”, the binding signal was 8130 fluorescence intensity (a.u.).

As to “CCCCACCAATCACCGCAGCTAGAACTCCCTCCGTCCCGTTCGGAGTCACCTAGTGCAG”, the binding signal was 9740 fluorescence intensity (a.u.).

On to “CTTTGTATCGTTCACAATATCTCTGTTCTTGTTGTTCTTCCGGAGTCACCTAGTGCAG”, for which the binding signal is 11800 fluorescence intensity (a.u.).

“CGCTAATCCTGACCCTCTCCCTCTACTTCCAATCTCATCTCGGAGTCACCTAGTGCAG”: the binding signal is 9110 fluorescence intensity (a.u.).

With “GAGAGATTTAAGCACACAAGCCCAACCAAAGTCAACGCCACGGAGTCACCTAGTGCAG”, the binding signal is 10600 fluorescence intensity (a.u.).

For the sequence “CAAAGATTTTGCCGAGTTGGGCGGGTTAATAATAATAATACGGAGTCACCTAGTGCAG”, the binding signal was 9840 fluorescence intensity (a.u.).

With “CCTCAAGTTATTATCACTGTTTCTCTCACTCTCTCGTGATCGGAGTCACCTAGTGCAG”, the binding signal was 10600 fluorescence intensity (a.u.).

Regarding “CATTCCATTTTCTTTAGGAGTGGTCTTGATCCATTTTTATCGGAGTCACCTAGTGCAG”, the binding signal is 9560 fluorescence intensity (a.u.).

For “GCCGCCTCCACCAAATCCCCTACGGTCACCACCACTCGTTCGGAGTCACCTAGTGCAG”, the binding signal is 8560 fluorescence intensity (a.u.).

Regarding “CTCCCTATTGTTTATGTGTCGGACCTGGCATGCGGCCTATCGGAGTCACCTAGTGCAG”, the binding signal was 8760 fluorescence intensity (a.u.).

With “AAACCTGACTGTTGTTATTCCAAAGTTACAAAGCTAATTTCGGAGTCACCTAGTGCAG”, the binding signal was 8500 fluorescence intensity (a.u.).

For “GCACCGTGCACTATCTTGATTTTTGGCCATTTAACTGTTTCGGAGTCACCTAGTGCAG”, the binding signal is 8760 fluorescence intensity (a.u.).
